Results on 4 substances are retold here after article PMC12781089.

Protein sequences, listed by entry. Tags and fused reporters are not part of them. Residues count along the entry.
UniProt O60260: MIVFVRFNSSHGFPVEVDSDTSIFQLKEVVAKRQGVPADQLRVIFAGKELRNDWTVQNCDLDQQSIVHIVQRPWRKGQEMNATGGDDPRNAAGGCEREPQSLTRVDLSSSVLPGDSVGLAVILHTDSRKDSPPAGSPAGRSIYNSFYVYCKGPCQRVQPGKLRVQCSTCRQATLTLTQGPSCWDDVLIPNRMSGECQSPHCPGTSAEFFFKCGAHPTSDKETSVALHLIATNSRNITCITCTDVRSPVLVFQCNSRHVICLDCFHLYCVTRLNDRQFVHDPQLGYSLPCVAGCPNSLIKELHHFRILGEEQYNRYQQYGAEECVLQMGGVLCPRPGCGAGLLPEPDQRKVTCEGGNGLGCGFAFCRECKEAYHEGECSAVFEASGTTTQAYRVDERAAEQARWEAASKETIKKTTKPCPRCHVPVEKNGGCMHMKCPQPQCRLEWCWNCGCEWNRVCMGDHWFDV
UniProt Q14643: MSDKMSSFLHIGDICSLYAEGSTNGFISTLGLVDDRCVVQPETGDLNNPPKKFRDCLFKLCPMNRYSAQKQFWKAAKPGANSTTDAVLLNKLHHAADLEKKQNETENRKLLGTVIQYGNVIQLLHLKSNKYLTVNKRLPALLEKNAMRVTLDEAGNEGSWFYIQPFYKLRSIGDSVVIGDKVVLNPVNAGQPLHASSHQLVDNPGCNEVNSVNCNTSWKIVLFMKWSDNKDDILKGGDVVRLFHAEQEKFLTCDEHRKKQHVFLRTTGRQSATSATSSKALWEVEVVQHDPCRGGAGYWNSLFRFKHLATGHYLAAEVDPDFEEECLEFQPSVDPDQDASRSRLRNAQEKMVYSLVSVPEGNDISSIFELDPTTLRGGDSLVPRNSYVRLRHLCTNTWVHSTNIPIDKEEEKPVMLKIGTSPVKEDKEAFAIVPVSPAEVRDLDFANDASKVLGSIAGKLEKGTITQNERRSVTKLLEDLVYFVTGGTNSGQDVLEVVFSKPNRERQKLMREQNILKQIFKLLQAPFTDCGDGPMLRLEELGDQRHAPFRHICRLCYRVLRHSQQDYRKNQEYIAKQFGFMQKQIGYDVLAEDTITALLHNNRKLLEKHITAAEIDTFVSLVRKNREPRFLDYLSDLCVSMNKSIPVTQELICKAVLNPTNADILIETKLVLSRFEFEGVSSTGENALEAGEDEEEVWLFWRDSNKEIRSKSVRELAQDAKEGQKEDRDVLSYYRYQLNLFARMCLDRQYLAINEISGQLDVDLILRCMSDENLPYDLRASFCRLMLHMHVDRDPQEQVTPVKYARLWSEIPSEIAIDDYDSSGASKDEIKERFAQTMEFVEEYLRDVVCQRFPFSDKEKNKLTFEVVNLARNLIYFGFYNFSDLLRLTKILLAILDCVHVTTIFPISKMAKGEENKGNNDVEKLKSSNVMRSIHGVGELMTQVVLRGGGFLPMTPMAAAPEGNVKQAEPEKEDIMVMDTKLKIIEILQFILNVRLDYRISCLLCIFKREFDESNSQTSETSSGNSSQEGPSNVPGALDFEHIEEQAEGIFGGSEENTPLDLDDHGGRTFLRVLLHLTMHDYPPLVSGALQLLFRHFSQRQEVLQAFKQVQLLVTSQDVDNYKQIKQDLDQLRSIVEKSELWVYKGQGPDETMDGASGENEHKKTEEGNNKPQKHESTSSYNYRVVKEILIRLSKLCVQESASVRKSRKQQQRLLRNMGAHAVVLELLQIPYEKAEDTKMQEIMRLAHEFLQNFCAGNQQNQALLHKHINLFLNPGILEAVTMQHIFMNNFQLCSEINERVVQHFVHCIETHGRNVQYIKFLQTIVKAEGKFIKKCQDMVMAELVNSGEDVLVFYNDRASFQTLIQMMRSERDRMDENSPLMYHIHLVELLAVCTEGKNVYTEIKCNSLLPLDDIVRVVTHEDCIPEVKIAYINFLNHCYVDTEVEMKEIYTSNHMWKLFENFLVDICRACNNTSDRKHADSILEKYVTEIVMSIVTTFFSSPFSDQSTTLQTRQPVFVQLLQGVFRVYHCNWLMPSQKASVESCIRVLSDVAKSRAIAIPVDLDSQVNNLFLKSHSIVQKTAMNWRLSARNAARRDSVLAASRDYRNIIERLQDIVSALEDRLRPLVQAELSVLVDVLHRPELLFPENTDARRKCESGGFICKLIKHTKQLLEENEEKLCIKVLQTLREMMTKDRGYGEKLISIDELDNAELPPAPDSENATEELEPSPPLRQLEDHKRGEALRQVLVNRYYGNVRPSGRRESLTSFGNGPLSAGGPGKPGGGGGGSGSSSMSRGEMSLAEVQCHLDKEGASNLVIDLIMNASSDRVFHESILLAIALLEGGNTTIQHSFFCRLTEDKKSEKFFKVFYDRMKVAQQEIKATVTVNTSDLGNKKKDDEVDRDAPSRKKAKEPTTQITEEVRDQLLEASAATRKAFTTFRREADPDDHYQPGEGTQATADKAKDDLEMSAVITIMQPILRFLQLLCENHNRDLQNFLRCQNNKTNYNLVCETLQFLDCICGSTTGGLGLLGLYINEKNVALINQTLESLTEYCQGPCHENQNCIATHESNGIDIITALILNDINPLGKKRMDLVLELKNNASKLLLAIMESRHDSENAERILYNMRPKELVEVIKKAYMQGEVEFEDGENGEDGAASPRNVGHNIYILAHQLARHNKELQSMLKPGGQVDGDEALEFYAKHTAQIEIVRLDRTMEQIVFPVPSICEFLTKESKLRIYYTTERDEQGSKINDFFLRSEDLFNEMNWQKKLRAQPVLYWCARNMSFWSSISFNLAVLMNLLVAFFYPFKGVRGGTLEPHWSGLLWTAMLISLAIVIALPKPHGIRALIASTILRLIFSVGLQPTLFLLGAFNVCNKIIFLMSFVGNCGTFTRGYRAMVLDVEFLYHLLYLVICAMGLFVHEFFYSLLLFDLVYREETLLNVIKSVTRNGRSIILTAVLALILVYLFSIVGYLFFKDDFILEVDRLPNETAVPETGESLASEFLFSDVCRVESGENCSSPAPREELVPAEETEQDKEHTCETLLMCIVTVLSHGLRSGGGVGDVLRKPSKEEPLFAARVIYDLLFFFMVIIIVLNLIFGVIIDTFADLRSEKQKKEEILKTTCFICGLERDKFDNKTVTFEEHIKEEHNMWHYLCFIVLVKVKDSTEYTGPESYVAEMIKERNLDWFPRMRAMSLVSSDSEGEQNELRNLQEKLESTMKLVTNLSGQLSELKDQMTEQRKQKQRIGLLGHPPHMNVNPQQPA
UniProt P38646, residues 47-679: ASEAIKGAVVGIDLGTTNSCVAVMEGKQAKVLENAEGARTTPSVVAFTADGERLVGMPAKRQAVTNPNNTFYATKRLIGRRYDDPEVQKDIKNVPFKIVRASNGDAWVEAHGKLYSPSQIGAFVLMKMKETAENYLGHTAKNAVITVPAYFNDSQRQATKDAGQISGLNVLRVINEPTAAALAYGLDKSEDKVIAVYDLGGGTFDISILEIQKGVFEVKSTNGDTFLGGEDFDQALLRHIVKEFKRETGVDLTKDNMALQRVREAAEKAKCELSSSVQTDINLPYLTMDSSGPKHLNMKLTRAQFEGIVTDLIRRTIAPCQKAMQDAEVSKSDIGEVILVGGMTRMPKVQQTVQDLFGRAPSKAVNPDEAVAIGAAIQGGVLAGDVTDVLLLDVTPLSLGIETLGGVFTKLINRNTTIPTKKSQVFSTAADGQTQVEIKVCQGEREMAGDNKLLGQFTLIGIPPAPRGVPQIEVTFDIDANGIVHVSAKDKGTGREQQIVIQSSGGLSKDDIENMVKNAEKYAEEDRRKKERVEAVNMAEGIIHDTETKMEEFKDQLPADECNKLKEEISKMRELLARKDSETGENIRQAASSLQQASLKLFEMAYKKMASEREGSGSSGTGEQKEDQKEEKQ
UniProt P38647, residues 47-679: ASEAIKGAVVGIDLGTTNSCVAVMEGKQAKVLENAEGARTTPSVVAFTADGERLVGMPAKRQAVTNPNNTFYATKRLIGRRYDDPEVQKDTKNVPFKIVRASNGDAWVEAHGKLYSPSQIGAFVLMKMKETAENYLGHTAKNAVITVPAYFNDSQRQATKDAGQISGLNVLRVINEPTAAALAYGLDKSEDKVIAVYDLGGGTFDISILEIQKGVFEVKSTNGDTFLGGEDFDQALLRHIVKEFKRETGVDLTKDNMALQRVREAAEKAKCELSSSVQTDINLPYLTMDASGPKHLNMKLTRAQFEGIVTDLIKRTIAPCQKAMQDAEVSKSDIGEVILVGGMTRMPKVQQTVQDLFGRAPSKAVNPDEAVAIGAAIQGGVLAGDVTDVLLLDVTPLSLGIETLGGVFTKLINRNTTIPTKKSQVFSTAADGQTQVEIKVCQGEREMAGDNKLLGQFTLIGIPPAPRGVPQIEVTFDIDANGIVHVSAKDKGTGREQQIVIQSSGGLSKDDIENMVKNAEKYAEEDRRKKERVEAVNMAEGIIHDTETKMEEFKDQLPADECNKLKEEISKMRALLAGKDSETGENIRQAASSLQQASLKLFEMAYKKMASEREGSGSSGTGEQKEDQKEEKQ
UniProt P21796: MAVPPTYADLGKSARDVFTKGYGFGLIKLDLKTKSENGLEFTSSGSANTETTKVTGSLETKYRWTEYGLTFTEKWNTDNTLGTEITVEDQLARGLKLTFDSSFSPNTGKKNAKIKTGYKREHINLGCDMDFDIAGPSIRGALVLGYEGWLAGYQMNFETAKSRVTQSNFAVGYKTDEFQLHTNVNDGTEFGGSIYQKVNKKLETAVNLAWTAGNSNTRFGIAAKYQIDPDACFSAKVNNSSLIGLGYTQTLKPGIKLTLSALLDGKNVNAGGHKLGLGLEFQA

Results are given in words; binding and its absence hold for the method and conditions named. For some assays here: Binding seen in cells or lysates may run through a third protein. Some results given as binding are weak or reduced against the parent protein; the word gives no strength.

Assay [1] concerns the target Parkin, overexpressed wild type (Parkin OE M17 cells) (human) (UniProt O60260). The assay is described as follows: co-IP; Parkin antibody on Dynabeads Protein G, total NP-40 lysates of Parkin-overexpressing M17 cells, 4 C overnight; also after 2-APB (50 uM, 2 h) or CCCP (20 uM, 1 h) for IP3R.
Assay [2] deals with Parkin (human (endogenous in M17)) (UniProt O60260). In words: proximity ligation; Duolink in situ PLA with Parkin antibody paired with IP3R, Grp75 or VDAC1 antibody in fixed control M17 cells; also after 2-APB (50 uM, 2 h) or CCCP (20 uM, 1 h) for Parkin/IP3R.
Assay [3] concerns the target inositol-1,4,5-triphosphate receptor (IP3R) (human (endogenous in M17 and SH-SY5Y)) (UniProt Q14643). The assay is described as follows: native gel or EMSA; BN-PAGE (3-12% Bis-Tris) and 2D BN/SDS-PAGE with immunoblot of crude mitochondria fractions (1% NP40) from Parkin-overexpressing M17 cells; also after 2-APB or CCCP.
The target in assay [4] is Parkin, overexpressed wild type (Parkin OE M17 cells) (human) (UniProt O60260). The description is as above.
The target in assay [5] is inositol-1,4,5-triphosphate receptor (IP3R) (human (endogenous in M17 and SH-SY5Y)) (UniProt Q14643). The assay is described as follows: co-IP; IP3R antibody on Dynabeads Protein G, lysates of control and Parkin KO M17 and SH-SY5Y cells.
Assay [6] deals with T1, Parkin (mouse brain) (mouse (endogenous in brain)) (UniProt Q9WVS6).
T1 sequence: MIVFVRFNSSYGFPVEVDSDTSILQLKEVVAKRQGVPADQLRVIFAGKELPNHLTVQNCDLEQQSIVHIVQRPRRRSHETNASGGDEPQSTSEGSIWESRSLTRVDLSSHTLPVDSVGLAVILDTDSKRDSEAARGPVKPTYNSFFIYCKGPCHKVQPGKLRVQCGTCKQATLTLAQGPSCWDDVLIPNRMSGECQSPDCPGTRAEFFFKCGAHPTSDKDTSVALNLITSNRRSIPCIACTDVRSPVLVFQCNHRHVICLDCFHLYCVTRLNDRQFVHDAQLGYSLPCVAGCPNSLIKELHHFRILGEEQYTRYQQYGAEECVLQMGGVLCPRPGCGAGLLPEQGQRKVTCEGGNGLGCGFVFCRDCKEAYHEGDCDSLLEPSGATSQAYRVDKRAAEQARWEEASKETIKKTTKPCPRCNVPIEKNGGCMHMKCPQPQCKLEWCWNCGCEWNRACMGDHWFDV
The assay is described as follows: co-IP; Parkin antibody on Dynabeads Protein G, MAM fractions prepared from the ventral midbrain of mouse brain.

Assay [7] has as its target inositol-1,4,5-triphosphate receptor (IP3R), mouse brain (mouse (endogenous in brain)) (UniProt P11881). In words: co-IP; IP3R antibody on Dynabeads Protein G, brain homogenates (ventral midbrain lysates) of WT and Parkin KO mice.
Assay [8] has as its target T1, Parkin (mouse brain) (mouse (endogenous in brain)). The assay is described as follows: co-IP; Parkin antibody on Dynabeads Protein G, total lysates of ventral midbrain of mouse brain.
The target in assay [9] is inositol-1,4,5-triphosphate receptor (IP3R), mouse brain (mouse (endogenous in brain)) (UniProt P11881). In words: native gel or EMSA; BN-PAGE with immunoblot of crude mitochondria fractions from ventral midbrain of mouse brain.
Assay [10] has as its target T1, Parkin (mouse brain) (mouse (endogenous in brain)). Described as above.
Assay [11] addresses inositol-1,4,5-triphosphate receptor (IP3R) (human (endogenous in M17 and SH-SY5Y)) (UniProt Q14643). In words: proximity ligation; Duolink in situ PLA with IP3R and VDAC1 antibodies in fixed control and Parkin KO M17 and SH-SY5Y cells.
Assay [12] addresses T1, Parkin (mouse brain) (mouse (endogenous in brain)). In words: co-IP; co-IP of Parkin and IP3R from extracted ER fractions (source of the fractions not given).

In the case of Grp75 (from UniProt P38646 47-679), the binding result in assay [1], in [2], in [3], in [4] and in assay [5] was “binds” throughout.
In the case of “Grp75, mouse brain (from UniProt P38647 47-679)”, the binding result in assay [6], in [7], in assay [8], in assay [9] and in [10] was “binds” throughout.
Regarding VDAC1 (from UniProt P21796 1-283), the binding result in [11], in assay [1], in assay [2], in assay [3], in [4] and in assay [5] was “binds” in each case.
“inositol-1,4,5-triphosphate receptor (IP3R), mouse brain (from UniProt P11881 1-2749)”: the binding result is on record as “binds” in assay [6], “binds” in [8], “no binding (condition: in extracted ER fractions)” in assay [12] and “binds” in assay [10].
